Data: PubChem BioAssay AID2685 (National Center for Advancing Translational Sciences (NCATS), 2010)
The other results are listed elsewhere or left out. Shown are side measurements of this screen, not its main read-out; they come without a call. Most of these compounds were active or inconclusive in the main read-out, so they are no random draw. Words in brackets tell the shape of the fitted curve; partial curves, single points and poor fits give uncertain potencies.

Assay: qHTS Assay for Lipid Storage Modulators in Drosophila S3 Cells;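 for cell number change: cells counted by Cell Tracker Red CMTPX staining in the red channel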
Details: BODIPY lipid droplet fluorescence, 18-24 h; for cell number change: measured here: cell count max response, cells fed with added oleic acid
Summary of the method: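 Laser-scanning cytometry quantifies lipid droplet accumulation (500–530 nm total intensity; droplet/cell object ratio) in oleic acid-fed (400 uM added) Drosophila S3 cells treated with a concentration series. 20 uM Triacsin C defined 100% inhibition.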

[1] = measured here: lipid fluorescence (Fed channel) AC50, cells fed with added oleic acid
[2] = measured here: cell number channel AC50, cells fed with added oleic acid

| SMILES | cell number change | AC50 [1] | AC50 [2] |
| --- | --- | --- | --- |
| CC(C)(C)c1nc(N2CCN(C(=O)c3ccco3)CC2)c2nnn(Cc3ccccc3)c2n1 | 14% | 29.1 µM [falling, single point] |  |
| CN(C)C(=O)c1cccn(Cc2ccc(C(F)(F)F)cc2)c1=O | -7.37% | 3.66 µM [rising, single point] |  |
| COC(=O)c1sc(NC(=O)C2CCCO2)c(C(=O)OC)c1C (stereo unspecified) | -14.3% | 4.11 µM [falling, full curve, poor fit] |  |
| CCOC(=O)C1CCN(C(=O)c2ccc(OC)cc2OC)CC1 |  | 16.4 µM [rising, partial curve] |  |
| CC(=O)Nc1cc(C(=O)N2CCc3ccccc3C2)ccc1Sc1ccc(F)cc1 | 19.5% | 7.31 µM [falling, single point] |  |
| O=C(Cn1cnc2c(cnn2-c2ccccc2)c1=O)Nc1cc(S(=O)(=O)N2CCOCC2)ccc1Cl |  | 20.6 µM [falling, partial curve] |  |
| O=C(NCCCN1CCN(c2ccccc2F)CC1)Nc1ccc(F)cc1 | -3.76% |  |  |
| COc1ccc2c(CC(=O)NC(Cc3ccc(Cl)cc3)C(=O)O)cc(=O)oc2c1C (stereo unspecified) | 207% |  | 29.1 µM [rising, single point] |
| Cc1ccccc1NC(=O)c1ccc(CN2CCC(Cc3ccccc3)CC2)cc1 |  | 2.06 µM [rising, partial curve] |  |
| CC(C)Cn1c(N)c(C(=O)COC(=O)C2CC(=O)N(Cc3ccccc3Cl)C2)c(=O)n(C)c1=O (stereo unspecified) | -51.3% |  | 32.6 µM [falling, single point] |
| Cc1ccc(NS(C)(=O)=O)c(C(=O)c2ccccc2)c1 | 68.8% | 9.2 µM [rising, partial curve] | 3.66 µM [rising, partial curve] |
| O=C(Cc1ccc([N+](=O)[O-])cc1)NCc1ccc2c(c1)OCO2 | 3.74% | 29.1 µM [rising, single point] | 0.103 µM [rising, full curve] |
| CCCC(=O)Nc1ccc(C)c(O)c1 | -0.133% | 3.26 µM [falling, single point] |  |
| COc1ccc(Nc2nc(N(C)c3ccccc3)nc(N)c2[N+](=O)[O-])cc1 | -10.4% |  |  |
| Cc1ccccc1NC(=O)NC1(C(=O)N2CCC(O)CC2)CCCCC1 | 33.3% |  | 10.3 µM [rising, partial curve] |
| COc1ccc(OC)c(/C=C2\SC(=S)N(Cc3cccnc3)C2=O)c1 | 15.4% |  |  |
| Cc1ccc(Nc2c3c(nc4ncnn24)CCC3)cc1 |  | 6.51 µM [rising, single point] | 6.51 µM [rising, single point] |
| Cn1c(N)c(C(=O)COC(=O)c2ccc(Cl)c(S(=O)(=O)N3CCCCC3)c2)c(=O)n(C)c1=O | -13.2% | 0.58 µM [falling, single point] |  |
| CCOc1ccc(CCNC(=O)COC(=O)c2nc3nc(C)cc(C)n3n2)cc1OCC | -5.46% | 0.326 µM [falling, single point] | 6.51 µM [rising, single point] |
| O=C(Cn1ncnn1)OCc1ccccc1Cl | -37.4% | 11.6 µM [falling, single point] | 8.2 µM [falling, partial curve, poor fit] |

| SMILES | cell number change | AC50 [1] | AC50 [2] |
| --- | --- | --- | --- |
| O=C(CC1Sc2ccccc2NC1=O)NNC(=O)Nc1ccc(Cl)cc1 (stereo unspecified) |  | 0.651 µM [rising, partial curve, poor fit] |  |
| Cc1cc(N=Cc2c(O)ccc3ccccc23)no1 | -1.02% | 6.51 µM [rising, partial curve] |  |
| CCOc1ccc(NC(=O)c2ccc3c(SCC(=O)O)c4c(nc3c2)CCCC4)cc1 | 54.9% | 0.731 µM [rising, full curve, poor fit] | 29.1 µM [rising, single point] |
| O=S(=O)(Cc1cc(Sc2ccccc2)nc(-c2ccccc2)n1)c1ccccc1 |  | 2.06 µM [rising, partial curve] |  |
| CSc1ccc(/C=N/n2c(C)nc3ccccc3c2=O)cc1 | -11.1% |  |  |
| COCCNC(=O)C(c1cccs1)N(C(=O)Cn1nnc2ccccc21)c1cccc(C)c1 (stereo unspecified) | -20.2% | 0.731 µM [rising, single point] |  |
| Cc1ccc2c(c1)N(C(=O)CCC(=O)NCc1cccc(Br)c1)CC(C)O2 (stereo unspecified) | -18.7% | 29.1 µM [falling, single point] |  |
| O=C(O)c1ccc(CN2C(=O)CSC2=S)cc1 | -5.82% | 3.26 µM [falling, partial curve, poor fit] |  |
| Cn1c(SCC(=O)N2c3ccccc3CCc3ccccc32)nnc1-c1cc2ccccc2cc1O | -11.2% | 29.1 µM [falling, single point] |  |
| CCCCN(C(=O)C(C)N1C(=O)c2ccccc2C1=O)c1c(N)n(CCCC)c(=O)[nH]c1=O (stereo unspecified) | 24.9% | 25.9 µM [rising, single point] |  |
| COc1ccccc1NS(=O)(=O)c1ccc(C)c(C(=O)NCc2cccnc2)c1 | -0.777% | 7.31 µM [rising, partial curve, poor fit] |  |
| O=S1(=O)CCOC[C@H](CC2CCCCC2)N1Cc1cccc(F)c1 | -2.99% |  |  |
| Clc1ccc(N2CCOCC2)nn1 | -4.05% | 0.517 µM [falling, single point] |  |
| Cc1cc(-c2ccc(C(=O)O)s2)cnc1N | 35.7% | 0.00517 µM [rising, full curve] | 0.206 µM [rising, full curve] |
| COc1ccc(-n2c3c(cc(C(=O)N4CCCCC4)c2=O)C(=O)CC(C)(C)C3)cc1 | -85.9% | 5.8 µM [falling, full curve] | 3.26 µM [falling, full curve] |
| CC(C)Oc1c(Br)cc(Br)cc1/C=N/NC(N)=S | -21.9% | 20.6 µM [falling, single point] |  |
| CN(C)S(=O)(=O)N(CC(=O)N(Cc1ccccc1)Cc1ccccc1)c1ccccc1 | 42.9% | 1.3 µM [falling, full curve, poor fit] | 29.1 µM [rising, single point] |
| COc1cccc(OC)c1C(=O)NC(=O)Nc1c(F)cc(F)cc1F | 4.26% | 0.082 µM [falling, full curve, poor fit] |  |
| Cn1cc(S(=O)(=O)N2CCOCC2)cc1C(=O)NCCc1ccccc1 | -15% |  |  |
| O=C(c1cncc(Br)c1)N1CCN(c2ccc([N+](=O)[O-])cc2)CC1 | -34.9% | 7.31 µM [rising, partial curve] | 0.731 µM [rising, full curve] |

A second format for 14 compounds above.
SMILES | cell number change | AC50 [1] | AC50 [2]
CN(C)C(=O)c1cccn(Cc2ccc(C(F)(F)F)cc2)c1=O | -7.37% | 3.66 µM [rising, single point] | 
CC(=O)Nc1cc(C(=O)N2CCc3ccccc3C2)ccc1Sc1ccc(F)cc1 | 19.5% | 7.31 µM [falling, single point] | 
O=C(NCCCN1CCN(c2ccccc2F)CC1)Nc1ccc(F)cc1 | -3.76% |  | 
COc1ccc2c(CC(=O)NC(Cc3ccc(Cl)cc3)C(=O)O)cc(=O)oc2c1C (stereo unspecified) | 207% |  | 29.1 µM [rising, single point]
CCCC(=O)Nc1ccc(C)c(O)c1 | -0.133% | 3.26 µM [falling, single point] | 
COc1ccc(Nc2nc(N(C)c3ccccc3)nc(N)c2[N+](=O)[O-])cc1 | -10.4% |  | 
COc1ccc(OC)c(/C=C2\SC(=S)N(Cc3cccnc3)C2=O)c1 | 15.4% |  | 
Cn1c(N)c(C(=O)COC(=O)c2ccc(Cl)c(S(=O)(=O)N3CCCCC3)c2)c(=O)n(C)c1=O | -13.2% | 0.58 µM [falling, single point] | 
CCOc1ccc(CCNC(=O)COC(=O)c2nc3nc(C)cc(C)n3n2)cc1OCC | -5.46% | 0.326 µM [falling, single point] | 6.51 µM [rising, single point]
O=C(CC1Sc2ccccc2NC1=O)NNC(=O)Nc1ccc(Cl)cc1 (stereo unspecified) |  | 0.651 µM [rising, partial curve, poor fit] | 
Cc1ccc2c(c1)N(C(=O)CCC(=O)NCc1cccc(Br)c1)CC(C)O2 (stereo unspecified) | -18.7% | 29.1 µM [falling, single point] | 
CCCCN(C(=O)C(C)N1C(=O)c2ccccc2C1=O)c1c(N)n(CCCC)c(=O)[nH]c1=O (stereo unspecified) | 24.9% | 25.9 µM [rising, single point] | 
COc1ccc(-n2c3c(cc(C(=O)N4CCCCC4)c2=O)C(=O)CC(C)(C)C3)cc1 | -85.9% | 5.8 µM [falling, full curve] | 3.26 µM [falling, full curve]
O=C(c1cncc(Br)c1)N1CCN(c2ccc([N+](=O)[O-])cc2)CC1 | -34.9% | 7.31 µM [rising, partial curve] | 0.731 µM [rising, full curve]

Going on with the list.

| SMILES | cell number change | AC50 [1] | AC50 [2] |
| --- | --- | --- | --- |
| Cc1cccnc1NCC(O)COc1ccccc1 (stereo unspecified) | -105% | 23.1 µM [falling, partial curve] | 29.1 µM [falling, single point] |
| CC1(C)NC(C)(C)c2nonc2/C1=N\O | 1.41% | 0.058 µM [falling, full curve, poor fit] |  |
| CCOc1ccc(N(C(=O)c2snc(C(N)=O)c2N)C(CC)C(=O)NC2CCCC2)cc1 (stereo unspecified) | 27% |  |  |
| COc1ccc2oc(C(=O)Nc3nccs3)c(C)c2c1 | -20.2% |  |  |
| COc1ccc2cnnc(SCC(=O)Nc3ccccc3)c2c1OC | 13.1% |  |  |
| COc1ccc(S(=O)(=O)n2cnc3cc(C)c(C)cc32)cc1 | -11.8% | 0.366 µM [rising, full curve] |  |
| COc1ccc(NC(=O)C2C3CCC4C(CCC32)C4(Cl)Cl)cc1 (stereo unspecified) | -11.4% | 0.103 µM [falling, full curve, poor fit] |  |
| COC(=O)C(O)(NC(=O)OCc1ccccc1)C(F)(F)F (stereo unspecified) | -206% | 23.1 µM [falling, single point] |  |
| COc1ccc(C2CC(c3cccs3)=NN2C(=O)c2ccc(Br)o2)cc1 (stereo unspecified) | -49.3% | 29.1 µM [falling, single point] | 29.1 µM [falling, single point] |
| CCOc1ccccc1-c1nc(C(N)=O)c2[nH]c(=O)n(-c3cccc(C)c3)c2n1 | 13.1% |  | 0.00461 µM [falling, full curve, poor fit] |
| Cc1ccc(/C=C/C2=NN(Cc3ccccc3)C(=O)CC2)cc1 | 36.3% | 4.61 µM [rising, single point] | 0.0651 µM [rising, full curve] |
| CN1CCN(NC(=O)c2ccc(Cl)cc2Cl)CC1 | -16.7% | 9.2 µM [falling, partial curve] | 3.66 µM [rising, partial curve] |
| Cc1nn(C)c(C)c1CN(C)C(=O)c1cnn2c1NC(c1ccccc1)CC2C(F)(F)F (stereo unspecified) | 0.146% |  |  |
| O=C(NNc1ncccc1Cl)c1c(Cl)cccc1Cl | -29.8% | 16.4 µM [falling, single point] |  |
| CCOC(=O)c1ccccc1NC(=O)CSc1nnc(COc2ccccc2C)n1C |  | 4.61 µM [rising, partial curve] | 3.66 µM [rising, single point] |
| Cc1cccc(-n2c(CNC(=O)Cc3ccccc3)n[nH]c2=S)c1 | 6.04% |  | 0.651 µM [falling, single point] |
| O=C(N/N=C/c1ccncc1)c1cc2ccccc2o1 | -13.7% | 0.00461 µM [rising, full curve, poor fit] |  |
| CC(C(=O)Nc1ccccc1C(=O)N1CCOCC1)N(c1ccc(Cl)cc1)S(C)(=O)=O (stereo unspecified) |  | 2.91 µM [falling, single point] |  |
| Cc1ccc(/C=C(\NC(=O)c2ccccc2)C(=O)NC(Cc2ccccc2)C(=O)O)cc1 (stereo unspecified) | -32.8% | 4.11 µM [falling, full curve, poor fit] | 3.66 µM [falling, full curve, poor fit] |
